The target of assay [1] is T1, USP15 (human (endogenous in TNBC cell lines)) (UniProt Q9Y4E8).
T1 sequence: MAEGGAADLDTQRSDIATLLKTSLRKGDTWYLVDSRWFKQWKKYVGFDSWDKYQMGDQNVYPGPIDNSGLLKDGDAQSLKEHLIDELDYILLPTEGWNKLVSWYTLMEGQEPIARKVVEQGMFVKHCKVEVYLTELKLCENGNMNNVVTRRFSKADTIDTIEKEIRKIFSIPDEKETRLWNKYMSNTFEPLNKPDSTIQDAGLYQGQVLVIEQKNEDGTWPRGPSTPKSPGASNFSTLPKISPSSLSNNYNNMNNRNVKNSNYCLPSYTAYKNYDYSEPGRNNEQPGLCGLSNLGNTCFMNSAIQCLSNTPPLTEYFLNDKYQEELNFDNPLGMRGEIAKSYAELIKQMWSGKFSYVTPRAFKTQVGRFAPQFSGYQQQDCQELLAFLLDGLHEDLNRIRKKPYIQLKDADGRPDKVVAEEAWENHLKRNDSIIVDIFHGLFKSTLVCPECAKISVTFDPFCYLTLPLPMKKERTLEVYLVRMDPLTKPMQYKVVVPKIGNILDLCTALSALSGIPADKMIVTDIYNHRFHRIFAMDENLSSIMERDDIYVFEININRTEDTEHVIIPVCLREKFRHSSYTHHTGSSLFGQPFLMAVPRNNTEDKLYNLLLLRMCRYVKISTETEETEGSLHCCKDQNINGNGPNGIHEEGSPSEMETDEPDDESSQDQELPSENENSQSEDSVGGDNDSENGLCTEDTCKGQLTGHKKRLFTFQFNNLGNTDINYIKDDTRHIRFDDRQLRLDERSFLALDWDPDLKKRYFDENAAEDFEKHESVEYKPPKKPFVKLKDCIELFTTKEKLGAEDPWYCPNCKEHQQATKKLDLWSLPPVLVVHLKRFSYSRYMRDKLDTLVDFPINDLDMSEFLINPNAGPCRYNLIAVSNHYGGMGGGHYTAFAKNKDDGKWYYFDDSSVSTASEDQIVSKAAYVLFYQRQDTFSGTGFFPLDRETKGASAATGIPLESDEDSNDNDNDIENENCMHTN
Put plainly: co-IP; co-IP from TNBC cells (anti-YAP1 or anti-USP15), western blotting; procedure referred to a previous study.

By UniProt entry, the sequences of proteins in these tests, tags left out.
UniProt P46937: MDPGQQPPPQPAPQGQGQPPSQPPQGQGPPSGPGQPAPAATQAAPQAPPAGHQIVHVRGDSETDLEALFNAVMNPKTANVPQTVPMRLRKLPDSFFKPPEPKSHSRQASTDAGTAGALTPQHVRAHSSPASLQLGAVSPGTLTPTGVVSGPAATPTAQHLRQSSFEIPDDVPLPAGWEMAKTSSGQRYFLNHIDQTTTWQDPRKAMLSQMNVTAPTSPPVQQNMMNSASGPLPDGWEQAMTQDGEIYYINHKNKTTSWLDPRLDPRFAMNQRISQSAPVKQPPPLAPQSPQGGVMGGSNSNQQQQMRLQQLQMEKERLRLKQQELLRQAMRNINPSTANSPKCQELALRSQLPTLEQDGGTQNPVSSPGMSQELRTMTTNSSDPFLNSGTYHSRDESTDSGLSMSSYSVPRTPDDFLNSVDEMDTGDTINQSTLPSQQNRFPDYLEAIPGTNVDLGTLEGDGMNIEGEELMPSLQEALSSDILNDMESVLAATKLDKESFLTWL
UniProt P49321: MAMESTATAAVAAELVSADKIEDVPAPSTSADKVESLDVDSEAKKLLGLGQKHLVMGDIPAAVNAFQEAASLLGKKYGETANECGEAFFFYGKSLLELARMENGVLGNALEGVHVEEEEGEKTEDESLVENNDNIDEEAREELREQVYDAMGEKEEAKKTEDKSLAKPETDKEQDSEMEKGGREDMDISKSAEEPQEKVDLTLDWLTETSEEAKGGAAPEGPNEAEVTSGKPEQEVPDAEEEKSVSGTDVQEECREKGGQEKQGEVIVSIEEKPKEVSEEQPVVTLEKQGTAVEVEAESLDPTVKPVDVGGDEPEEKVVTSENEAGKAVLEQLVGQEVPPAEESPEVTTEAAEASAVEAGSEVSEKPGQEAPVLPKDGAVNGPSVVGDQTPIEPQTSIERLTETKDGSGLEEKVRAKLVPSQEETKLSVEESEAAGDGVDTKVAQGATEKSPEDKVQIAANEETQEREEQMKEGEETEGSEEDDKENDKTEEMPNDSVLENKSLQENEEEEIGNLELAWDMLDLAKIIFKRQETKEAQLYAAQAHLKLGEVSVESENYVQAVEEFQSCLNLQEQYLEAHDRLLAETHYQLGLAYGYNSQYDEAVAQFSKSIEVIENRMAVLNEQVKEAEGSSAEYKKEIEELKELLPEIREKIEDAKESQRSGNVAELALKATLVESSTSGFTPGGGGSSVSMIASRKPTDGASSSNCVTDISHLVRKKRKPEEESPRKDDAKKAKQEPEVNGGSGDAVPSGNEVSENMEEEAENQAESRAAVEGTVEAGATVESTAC

The target of assay [2] is yes-associated protein (YAP) (human (endogenous in TNBC cell lines)) (UniProt P46937). Described as above.

These are yes or no findings as the source states them, for the method shown. Binding seen in cells or lysates may run through a third protein. Some entries that bind do so weakly or less than the wild type.

As for “nuclear autoantigenic sperm protein (NASP) (from UniProt P49321 1-788)”, the binding entry in assay [1] was “binds”.

B1: USP15 (enzyme, UniProt Q9Y4E8 1-981)
chain: MAEGGAADLDTQRSDIATLLKTSLRKGDTWYLVDSRWFKQWKKYVGFDSWDKYQMGDQNVYPGPIDNSGLLKDGDAQSLKEHLIDELDYILLPTEGWNKLVSWYTLMEGQEPIARKVVEQGMFVKHCKVEVYLTELKLCENGNMNNVVTRRFSKADTIDTIEKEIRKIFSIPDEKETRLWNKYMSNTFEPLNKPDSTIQDAGLYQGQVLVIEQKNEDGTWPRGPSTPKSPGASNFSTLPKISPSSLSNNYNNMNNRNVKNSNYCLPSYTAYKNYDYSEPGRNNEQPGLCGLSNLGNTCFMNSAIQCLSNTPPLTEYFLNDKYQEELNFDNPLGMRGEIAKSYAELIKQMWSGKFSYVTPRAFKTQVGRFAPQFSGYQQQDCQELLAFLLDGLHEDLNRIRKKPYIQLKDADGRPDKVVAEEAWENHLKRNDSIIVDIFHGLFKSTLVCPECAKISVTFDPFCYLTLPLPMKKERTLEVYLVRMDPLTKPMQYKVVVPKIGNILDLCTALSALSGIPADKMIVTDIYNHRFHRIFAMDENLSSIMERDDIYVFEININRTEDTEHVIIPVCLREKFRHSSYTHHTGSSLFGQPFLMAVPRNNTEDKLYNLLLLRMCRYVKISTETEETEGSLHCCKDQNINGNGPNGIHEEGSPSEMETDEPDDESSQDQELPSENENSQSEDSVGGDNDSENGLCTEDTCKGQLTGHKKRLFTFQFNNLGNTDINYIKDDTRHIRFDDRQLRLDERSFLALDWDPDLKKRYFDENAAEDFEKHESVEYKPPKKPFVKLKDCIELFTTKEKLGAEDPWYCPNCKEHQQATKKLDLWSLPPVLVVHLKRFSYSRYMRDKLDTLVDFPINDLDMSEFLINPNAGPCRYNLIAVSNHYGGMGGGHYTAFAKNKDDGKWYYFDDSSVSTASEDQIVSKAAYVLFYQRQDTFSGTGFFPLDRETKGASAATGIPLESDEDSNDNDNDIENENCMHTN
Take B1: in assay [2], the binding entry is “binds”.

The values above are taken from paper PMC12223775.
